At least one compound was matched to its structure with a doubt left.
How the values were obtained:
[1] = system: Namalwa (Burkitts lymphonia); assay: ³H-Thymidine incorporation assay (cytotoxicity by inhibition of DNA synthesis), Namalwa; type: cell-based, human; details: cells exposed to drug for 1h at 37°C in PBS, then 19 hr incubation; ³H-Thy incorporation
[2] = system: HSB2 (human T cell leukemia); assay: ³H-Thymidine incorporation assay (cytotoxicity by inhibition of DNA synthesis), HSB-2; type: cell-based; details: cells exposed to drug for 1h at 37°C in PBS, then 19 hr incubation; ³H-Thy incorporation

COC1=C(C)C(=O)C2=C(C1=O)[C@@H](COC(N)=O)[C@@]1(OC)[C@H]3N[C@H]3CN21 [Compound 22, mitomycin A, reference compound]
IC-50 NAMALWA [1]: 4x10⁻⁹ molar conc. | IC-50 HSB-2 [2]: 1x10⁻⁸ molar conc.

Source: EP0317956A2, “Anti-tumor prodrugs” (Bristol-Myers Squibb Company, priority 1987, dated 1989)
